# Measured data: PubChem BioAssay AID1224829 (NIAID, 2016)
# Test: 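Genes needed for LPS-driven NF-kappaB p65 nuclear entry in mouse macrophages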 (follow-up of hits)
# System: mouse RAW264.7 G9 macrophage reporter cells
# Knock-down reagent: single siRNA against mouse genes, 100 nM
# Time to read-out: 2 days of siRNA knock-down, then 40 min of LPS before fixing
# Treatment: LPS (Salmonella minnesota R595) at 10 ng/ml
# Measurement: 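Imaging of GFP-p65 after 40 min of LPS; nuclear over perinuclear ring intensity ratio, scaled to plate median and non-targeting control wells, given as z-score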
# Direction: p65 translocation z-score and gene median z-score, per vendor: higher = more nuclear NF-kappaB p65 after LPS
# Call rule: 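Active means the replicate-mean z-score lies beyond plus or minus 2, in either direction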
# Meaning of the calls: active = changed p65 translocation (either direction); inactive = no clear change
# This is a random part of about 3,800 reagents. 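Calls cover raised and lowered translocation; gene median uses one vendor's three siRNAs; qiagen siRNAs acted more weakly than ambion siRNAs.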 Reagents against one gene are numbered here.
target gene,reagent,siRNA vendor or control pool,"p65 translocation z-score, replicate mean","p65 translocation z-score, replicate 1","p65 translocation z-score, replicate 2","gene median z-score, per vendor",activity call
5330416C01Rik (GeneID 403201),1,ambion single siRNA,-3.21,-4.79,-1.63,-2.03,active
5330416C01Rik (GeneID 403201),2,ambion single siRNA,-1.32,-0.211,-2.42,-2.03,inactive
5330416C01Rik (GeneID 403201),3,ambion single siRNA,-1.99,-2.88,-1.1,-2.03,inactive
5330416C01Rik (GeneID 403201),4,qiagen single siRNA,-0.075,-0.163,0.0128,-0.075,inactive
5330416C01Rik (GeneID 403201),5,qiagen single siRNA,1.34,0.357,2.32,-0.075,inactive
5330416C01Rik (GeneID 403201),6,qiagen single siRNA,-2.17,-3.23,-1.11,-0.075,active
Alpl (GeneID 11647),1,ambion single siRNA,-1.8,-2.27,-1.32,-1.8,inactive
Alpl (GeneID 11647),2,ambion single siRNA,2.3,3.63,0.975,-1.8,active
Alpl (GeneID 11647),3,ambion single siRNA,-3.03,-2.59,-3.48,-1.8,active
Alpl (GeneID 11647),4,qiagen single siRNA,0.0664,-0.456,0.589,0.487,inactive
Alpl (GeneID 11647),5,qiagen single siRNA,0.72,0.562,0.879,0.487,inactive
Alpl (GeneID 11647),6,qiagen single siRNA,0.0272,-0.358,0.413,0.487,inactive
Rdh1 (GeneID 107605),1,ambion single siRNA,-2.09,-2.23,-1.94,-0.397,active
Rdh1 (GeneID 107605),2,ambion single siRNA,-0.397,-0.742,-0.0527,-0.397,inactive
Rdh1 (GeneID 107605),3,ambion single siRNA,0.101,0.147,0.0557,-0.397,inactive
Rdh1 (GeneID 107605),4,qiagen single siRNA,-0.0508,-0.73,0.628,-0.0508,inactive
Rdh1 (GeneID 107605),5,qiagen single siRNA,3.67,4.18,3.16,-0.0508,active
Rdh1 (GeneID 107605),6,qiagen single siRNA,-1.12,-1.26,-0.98,-0.0508,inactive
Bend6 (GeneID 320705),1,ambion single siRNA,2.21,2.21,2.21,-0.401,active
Bend6 (GeneID 320705),2,ambion single siRNA,-0.401,0.38,-1.18,-0.401,inactive
Bend6 (GeneID 320705),3,ambion single siRNA,-2.99,-4.01,-1.97,-0.401,active
Bend6 (GeneID 320705),4,qiagen single siRNA,2.2,2.19,2.22,0.596,active
Bend6 (GeneID 320705),5,qiagen single siRNA,0.596,0.533,0.658,0.596,inactive
Bend6 (GeneID 320705),6,qiagen single siRNA,-0.48,-0.893,-0.0662,0.596,inactive
Tmem139 (GeneID 109218),1,ambion single siRNA,1.36,1.95,0.778,0.155,inactive
Tmem139 (GeneID 109218),2,ambion single siRNA,0.155,-0.0982,0.408,0.155,inactive
Tmem139 (GeneID 109218),3,ambion single siRNA,-2.61,-3.13,-2.09,0.155,active
Tmem139 (GeneID 109218),4,qiagen single siRNA,0.867,1.3,0.43,0.729,inactive
Tmem139 (GeneID 109218),5,qiagen single siRNA,1.93,1.03,2.84,0.729,inactive
Tmem139 (GeneID 109218),6,qiagen single siRNA,-0.966,-1.27,-0.657,0.729,inactive
Or4a68 (GeneID 258804),1,ambion single siRNA,-3.14,-3.14,,0.0277,active
Or4a68 (GeneID 258804),2,ambion single siRNA,1.77,3.52,0.0277,0.0277,inactive
Or4a68 (GeneID 258804),3,ambion single siRNA,1.03,-1.28,3.33,0.0277,inactive
Or4a68 (GeneID 258804),4,qiagen single siRNA,-0.0749,-0.253,0.103,-0.706,inactive
Or4a68 (GeneID 258804),5,qiagen single siRNA,-1.21,-1.26,-1.16,-0.706,inactive
Or4a68 (GeneID 258804),6,qiagen single siRNA,-0.469,-1.61,0.672,-0.706,inactive
Il22b (GeneID 116849),1,ambion single siRNA,1.68,1.88,1.47,-2.51,inactive
Il22b (GeneID 116849),2,ambion single siRNA,-2.51,-3.03,-1.99,-2.51,active
Il22b (GeneID 116849),3,ambion single siRNA,-3.97,-3.94,-4,-2.51,active
Il22b (GeneID 116849),4,qiagen single siRNA,1.51,1.51,,0.708,inactive
Il22b (GeneID 116849),5,qiagen single siRNA,0.857,0.708,1.01,0.708,inactive
Il22b (GeneID 116849),6,qiagen single siRNA,-0.743,-1.31,-0.175,0.708,inactive

Laid out differently: results already given.
target gene | reagent | siRNA vendor or control pool | p65 translocation z-score, replicate mean | p65 translocation z-score, replicate 1 | p65 translocation z-score, replicate 2 | gene median z-score, per vendor | activity call
Rdh1 (GeneID 107605) | 6 | qiagen single siRNA | -1.12 | -1.26 | -0.98 | -0.0508 | inactive
Bend6 (GeneID 320705) | 1 | ambion single siRNA | 2.21 | 2.21 | 2.21 | -0.401 | active
Bend6 (GeneID 320705) | 2 | ambion single siRNA | -0.401 | 0.38 | -1.18 | -0.401 | inactive
Bend6 (GeneID 320705) | 3 | ambion single siRNA | -2.99 | -4.01 | -1.97 | -0.401 | active
Bend6 (GeneID 320705) | 4 | qiagen single siRNA | 2.2 | 2.19 | 2.22 | 0.596 | active
Bend6 (GeneID 320705) | 5 | qiagen single siRNA | 0.596 | 0.533 | 0.658 | 0.596 | inactive

The list goes on:
target gene,reagent,siRNA vendor or control pool,"p65 translocation z-score, replicate mean","p65 translocation z-score, replicate 1","p65 translocation z-score, replicate 2","gene median z-score, per vendor",activity call
Or5d39 (GeneID 258291),1,ambion single siRNA,-1.18,-1,-1.36,-3.72,inactive
Or5d39 (GeneID 258291),2,ambion single siRNA,-4.46,-4.54,-4.39,-3.72,active
Or5d39 (GeneID 258291),3,ambion single siRNA,-3.72,-3.93,-3.51,-3.72,active
Or5d39 (GeneID 258291),4,qiagen single siRNA,4.25,2.28,6.22,-0.372,active
Or5d39 (GeneID 258291),5,qiagen single siRNA,-0.725,-0.123,-1.33,-0.372,inactive
Or5d39 (GeneID 258291),6,qiagen single siRNA,-0.988,-1.36,-0.62,-0.372,inactive
Trim2 (GeneID 80890),1,ambion single siRNA,1.34,2.52,0.152,-3.07,inactive
Trim2 (GeneID 80890),2,ambion single siRNA,-3.07,-2.24,-3.89,-3.07,active
Trim2 (GeneID 80890),3,ambion single siRNA,-7.72,-7.42,-8.03,-3.07,active
Trim2 (GeneID 80890),4,qiagen single siRNA,0.49,-0.149,1.13,-0.45,inactive
Trim2 (GeneID 80890),5,qiagen single siRNA,-0.225,-0.75,0.301,-0.45,inactive
Trim2 (GeneID 80890),6,qiagen single siRNA,-4.27,-3.67,-4.87,-0.45,active
Neil3 (GeneID 234258),1,ambion single siRNA,-2.13,-2.13,,-3.1,active
Neil3 (GeneID 234258),2,ambion single siRNA,-4.06,-4.06,,-3.1,active
Neil3 (GeneID 234258),3,ambion single siRNA,,,,-3.1,inactive
Neil3 (GeneID 234258),4,qiagen single siRNA,4.05,3.22,4.87,1.14,active
Neil3 (GeneID 234258),5,qiagen single siRNA,0.502,-0.0334,1.04,1.14,inactive
Neil3 (GeneID 234258),6,qiagen single siRNA,0.522,-0.191,1.24,1.14,inactive
Cog3 (GeneID 338337),1,ambion single siRNA,-1.33,-1.33,,-1.54,inactive
Cog3 (GeneID 338337),2,ambion single siRNA,-8,-7.91,-8.08,-1.54,active
Cog3 (GeneID 338337),3,ambion single siRNA,0.817,3.18,-1.54,-1.54,inactive
Cog3 (GeneID 338337),4,qiagen single siRNA,1.12,0.0865,2.15,0.115,inactive
Cog3 (GeneID 338337),5,qiagen single siRNA,1.77,0.143,3.39,0.115,inactive
Cog3 (GeneID 338337),6,qiagen single siRNA,-1.59,-1.09,-2.09,0.115,inactive
